# Assay results as given in PMC12040169 (PLOS Biology, 2025).
# This is one part of the list.
# Tested on: T1, CTL2-GFP (C. trachomatis L2/434/Bu, GFP-expressing)
# T1 construct: L2/434/Bu, GFP-expressing
# Design: species or system HeLa; Intracellular C. trachomatis growth in HeLa cells, bulk GFP fluorescence relative to DMSO
# Details: bulk GFP, single well; 28.5 h, 10 µM; inhibitor
row,SMILES,% of control remaining [%]
1,CCN(CC)C(=O)CCc1nc2sc3c(c2c(=O)[nH]1)CCCC3 [CBK305069],130.008
2,CCn1c(C(C)NC2CCN(CC(=O)OC)CC2)nc2ccccc21 (stereo not shown) [CBK305396],82.456
3,Cc1cc(SCc2ccc(Cl)cc2)nc(=O)[nH]1 [CBK287719],106.244
4,COC(=O)Nc1ccc(S(=O)(=O)N2CCCC(C(=O)O)C2)cc1 (stereo not shown) [CBK265364],116.422
5,Cc1cc(NC(=O)C(=O)NCCCN2CCOCC2)ccc1Br [CBK268046],141.815
6,Cc1cc(O)c(-c2n[nH]c3c2C(c2ccccc2F)N(Cc2cccnc2)C3=O)cc1C (stereo not shown) [CBK268831],185.297
7,COc1ccccc1CCNC(=O)c1ncoc1-c1cccs1 [CBK282394],128.538
8,COC(=O)c1ccc(S(=O)(=O)N2CCC(C)CC2)cc1 [CBK070414],92.2565
9,O=C(O)c1ccc(-c2n[nH]c(=O)c3ccccc23)cc1 [CBK287148],111.674
10,Clc1cccc(-c2cncc(N3CCN(c4ccncc4)CC3)n2)c1 [CBK066099],141.959
11,COc1ccc([C@@]23CC[C@@H](NC(=O)Nc4ccc(C(C)(C)C)cc4)C[C@@H]2N(C)CC3)cc1OC [CBK036469T],103.458
12,NCCOc1ncccc1OCc1ccccc1 [CBK036305],122.074
13,CNC(=O)c1ccc(-c2ccc(C(C)=O)s2)nc1NCC1CC1 [CBK106307],100
14,CCOC(=O)c1c(NC(=O)c2cc3ccccc3o2)sc2c1CCCC2 [CBK262552],100
15,O=C(CSCc1ccc(Cl)cc1Cl)Nc1nccs1 [CBK131921],114.113
16,O=C(O)CC(NCc1ccccc1)C(=O)Nc1ccc(Cl)cc1 (stereo not shown) [CBK267141],150.871
17,Cn1cccc1CN1CCCC(n2c(=O)oc3ccccc32)C1 (stereo not shown) [CBK285111],123.194
18,O=C(/C=C/c1ccsc1)Nc1ccc(F)cc1 [CBK057139],82.8661
19,O=C(CC(CN1CCN(c2ccccn2)CC1)C(=O)O)NCc1ccccc1 (stereo not shown) [CBK286649],102.855
20,O=C1c2ccccc2CN1c1ccc(OC(F)(F)F)cc1 [CBK113237],56.8351

# Gathered by group: the entries above containing a thiophene ring, fused or not (five)
row,SMILES,% of control remaining [%]
1,CCN(CC)C(=O)CCc1nc2sc3c(c2c(=O)[nH]1)CCCC3 [CBK305069],130.008
7,COc1ccccc1CCNC(=O)c1ncoc1-c1cccs1 [CBK282394],128.538
13,CNC(=O)c1ccc(-c2ccc(C(C)=O)s2)nc1NCC1CC1 [CBK106307],100
14,CCOC(=O)c1c(NC(=O)c2cc3ccccc3o2)sc2c1CCCC2 [CBK262552],100
18,O=C(/C=C/c1ccsc1)Nc1ccc(F)cc1 [CBK057139],82.8661

# Following part.

row,SMILES,% of control remaining [%]
1,O=C(CSc1ncn(-c2ccccc2)n1)Nc1ccc(F)c(Cl)c1 [CBK267313],114.968
2,COc1ccc(/C(C#N)=C/c2ccc(-c3ccc(C(=O)O)cc3)o2)cc1OC [CBK268953],105.539
3,CC(C)N/C(=N/S(=O)(=O)c1ccccc1)c1ccccc1 [CBK262346],100
4,Cc1n[nH]c(C)c1CCC(=O)N/N=C/c1ccc(O)cc1 [CBK262927],100
5,COc1ccccc1CCC(=O)N1CCCc2c(cnn2C)C1 [CBK284847],128.079
6,Cc1ccc(N2CC(C(=O)Nc3ccc(S(=O)(=O)NCC4CCCO4)cc3)CC2=O)cc1 (stereo not shown) [CBK267532],126.505
7,COC(=O)c1cccc2c1CCCN2Cc1nnc(C2CCC2)o1 [CBK304072],102.673
8,O=C(NC(c1ccccc1)c1cccnc1)C1CCN(C(=O)NCCc2cccs2)CC1 (stereo not shown) [CBK060313],138.386
9,CCOC(=O)c1ccc(N2CCN(C(C)=O)CC2)c(NC(=O)c2cccc(F)c2)c1 [CBK270263],118.71
10,O=C(Nc1ccc(Cl)cc1Cl)NC(Cc1ccc(O)cc1)C(=O)O (stereo not shown) [CBK267386],149.44
11,COc1cc(CNC(=O)N(CCC#N)C2CCCCC2)cc(OC)c1OC [CBK156359],103.24
12,CC(C)(CN)c1ccccc1 [CBK012106C],142.327
13,Cc1cc2ncc3c(n2n1)CC1CCC3N1C(=O)c1ccco1 (stereo not shown) [CBK284379],133.391
14,Cc1ccc(N(CC(O)CN2C(=O)NC(C)(C)C2=O)S(=O)(=O)c2ccccc2)cc1 (stereo not shown) [CBK263580],84.0952
15,CNC(=O)CN1CC[C@H]2NC(=O)c3ccccc3OCC/C=C/C[C@H]2C1 [CBK292049],129.533
16,COc1ccccc1/C=N/NC(=O)COc1c(Br)cc(Br)cc1Br [CBK261966],109.58
17,COc1cccc(/C=N/NC(=O)CCN2CCN(C)CC2)c1O [CBK261499],115.776
18,Cc1ccc(-c2ccnc3[nH]c(=O)[nH]c(=O)c23)cc1 [CBK287978],131.939
19,Cc1cccc(C2(c3cccc(C)c3)CC2C(=O)NCc2cccnc2)c1 (stereo not shown) [CBK262382],106.017
20,CC(=O)Cc1ccccc1OCC(=O)O [CBK261031],117.978
